Article PMC8034648, “Oligomeric complexes formed by Redβ single strand annealing protein in its different DNA bound states”
Negatives hold for the conditions tested. Where a protein sequence is shown, tags need not be part of it. The comparison behind a weaker result is the experiment's own reference, which may not be listed here. For part of these data: Construct, isoform or probe ends are uncertain for at least one entry. For part of these data: At least one verdict rests on a figure or table, not on a statement of the authors.

Tests used:
[1] = target: T1, Redβ single strand annealing protein (bacteriophage λ) (UniProt P03698); test: EMSA; settings: EMSA: 10 uM Redβ, 50 uM nt DNA, 37 C, recombinant protein
T1 sequence: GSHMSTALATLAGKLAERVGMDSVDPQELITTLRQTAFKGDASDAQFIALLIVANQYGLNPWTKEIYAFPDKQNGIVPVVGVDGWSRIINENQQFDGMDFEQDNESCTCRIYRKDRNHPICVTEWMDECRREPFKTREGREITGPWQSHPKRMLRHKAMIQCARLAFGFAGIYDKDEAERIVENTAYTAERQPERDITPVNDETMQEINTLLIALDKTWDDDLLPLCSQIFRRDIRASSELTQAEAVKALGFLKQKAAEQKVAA

[2] = target: T1, Redβ single strand annealing protein (bacteriophage λ); test: native MS; settings: SEC-MALS: PBS, complexes formed at 22 C, AUC: PBS 20 C, native MS: 50 mM ammonium acetate pH ~7, room temperature, 4 nt/monomer, recombinant protein

## CCATCCGCAAAAATCGAGCTATGCAGGGCGATTCTGCTCTAAGCCATCCG / GCGGATGGCTTAGAGCAGAATCGCCCTGCATAGCTCGATTTTTGCGGATG [Cy5 50mer:Cy3 50mer (annealed sequentially or pre-formed)]
[1]; pre-annealed before adding Redβ, in PBS, or 20 mM Tris-HCl pH 7.5/10 mM NaCl/10 mM MgCl2, or 50 mM ammonium acetate pH …, label: 5'-Cy5 on strand 1, 5'-Cy3 on strand 2
  binding result: no binding

## TTGCATATTTAAAACATGTTGAGCTACAGCACCAGATTCAGCAATTAAGCTCTAAGCCATCCGCAAAAATGACCTCTTATCAA / TTGATAAGAGGTCATTTTTGCGGATGGCTTAGAGCTTAATTGCTGAATCTGGTGCTGTAGCTCAACATGTTTTAAATATGCAATGAC [83-:87+]
[2]; pre-formed dsDNA, 1 uM Redβ
  binding result: no binding

## TTGATAAGAGGTCATTTTTGCGGATGGCTTAGAGCTTAATTGCTGAATCTGGTGCTGTAGCTCAACATGTTTTAAATATGCAA [83+]
[2]; 1 uM Redβ, single-stranded DNA
  binding result: binds

## AAAATCGAGCTATGCA (double strand) [16mer annealed duplex]
[1]; strands added sequentially, PBS, only faint complex, in PBS, or 20 mM Tris-HCl pH 7.5/10 mM NaCl/10 mM MgCl2, or 50 mM ammonium acetate pH 7.0, label: 5'-Cy5, 5'-Cy3
  binding result: binds more weakly

## AAAAAAAAAAAAAAAAAAAAAAAAAAAAAAAAAAAAAA [dA38]
[2]; 0.1 uM Redβ, single-stranded DNA
  binding result: no binding

## TTTTTTTTTTTTTTTTTTTTTTTTTTTTTTTTTTTTTT (double strand) [dT38:dA38]
[2]; pre-formed dsDNA, 1 uM Redβ, very small amount of 11-mer complex
  binding result: binds more weakly
